Our source for the binding values is publication PMC4299515.

Chains of the proteins cited; added tags and fusions are not shown. Lines headed by an entry give the natural chain unless they say otherwise; changes in a name come on top.
UniProt Q61686: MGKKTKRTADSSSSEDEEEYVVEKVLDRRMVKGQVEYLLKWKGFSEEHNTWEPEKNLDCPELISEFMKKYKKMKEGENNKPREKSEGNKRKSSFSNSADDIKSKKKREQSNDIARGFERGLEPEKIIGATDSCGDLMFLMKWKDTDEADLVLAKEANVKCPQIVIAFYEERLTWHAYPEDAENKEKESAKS
UniProt P83917: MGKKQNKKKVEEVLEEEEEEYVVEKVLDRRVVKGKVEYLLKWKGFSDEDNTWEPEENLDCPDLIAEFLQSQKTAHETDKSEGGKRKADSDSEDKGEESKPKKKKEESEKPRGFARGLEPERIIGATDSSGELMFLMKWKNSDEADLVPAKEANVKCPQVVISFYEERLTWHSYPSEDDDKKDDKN
UniProt P23198: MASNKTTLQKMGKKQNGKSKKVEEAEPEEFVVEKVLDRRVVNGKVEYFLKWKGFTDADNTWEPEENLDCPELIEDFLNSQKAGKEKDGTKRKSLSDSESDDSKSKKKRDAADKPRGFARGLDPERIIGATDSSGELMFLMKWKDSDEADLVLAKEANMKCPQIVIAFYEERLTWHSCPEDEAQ

Test [1] deals with T1, SUV39H1, GFP- or RFP-tagged, in U2OS cells (F2H) (UniProt O54864).
T1 sequence: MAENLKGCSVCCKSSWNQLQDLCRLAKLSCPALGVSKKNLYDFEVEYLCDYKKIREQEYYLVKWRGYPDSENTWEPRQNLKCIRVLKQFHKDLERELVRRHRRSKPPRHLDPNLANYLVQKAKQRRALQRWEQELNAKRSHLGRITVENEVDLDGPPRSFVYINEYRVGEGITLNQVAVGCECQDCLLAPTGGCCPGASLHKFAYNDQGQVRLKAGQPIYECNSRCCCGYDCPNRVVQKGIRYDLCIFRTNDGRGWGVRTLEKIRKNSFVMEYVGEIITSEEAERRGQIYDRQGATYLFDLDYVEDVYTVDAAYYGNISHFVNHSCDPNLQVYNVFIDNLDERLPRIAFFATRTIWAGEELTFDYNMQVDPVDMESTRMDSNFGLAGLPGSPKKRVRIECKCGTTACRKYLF
As to the kind of experiment: two-hybrid; fluorescent two-hybrid (F2H) in living human U2OS cells: GFP-tagged protein tethered to lac-operator arrays via GBP-LacI, recruitment of the RFP-tagged protein seen by colocalization.

In test [2] the target is HP1α, GFP- or RFP-tagged, in NIH-3T3 cells (UniProt Q61686). As to the kind of experiment: fluorescence cross correlation spectroscopy (FCCS); soluble nucleoplasmic complexes of GFP- and RFP-labelled proteins in living NIH-3T3 cells.

No constants are given. Whether binding was seen depends on the method and setting. Some entries that bind do so weakly or less than the wild type. For some of these results: Tags and fused reporters may be left off the sequences shown.

Take “RFP-HP1β in U2OS cells (F2H) (from UniProt P83917 1-185)”: the binding entry in test [1] is “binds”.
Consider “RFP-HP1β in NIH-3T3 cells (from UniProt P83917 1-185)”, for which the binding entry in test [2] was “binds”.
Same read-out and setting: as for “RFP-HP1γ in NIH-3T3 cells (from UniProt P23198 1-183)”, the entry is “binds”; as for “HP1α, GFP- or RFP-tagged, in NIH-3T3 cells (from UniProt Q61686 1-191)”, “binds”.
